# Data as given in PubChem BioAssay AID651640 (Broad Institute, 2012).
# The whole screen tested about 350,000 compounds, of which about 6,000 (1.7%) were called active. Inconclusive means that the source gave no clear call. Such entries were picked first, then a sample of the others. Cut-off read from the data, not from the text of the source: active = CPE inhibition above about 20% (passing the limit was not always enough); inconclusive = no clear call, values can overlap the other calls; tested in BHK-21 cells.
# Assay: protection of cells from dengue 2 killing – plate reader, single concentration, primary screen (AID 651640);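 note: 0% = median of neutral control wells and 100% = median of positive control wells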
# Details: DENV2-infected cells, cytopathic effect rescue, at 9.99 µM, stronger effect = higher value
row,SMILES,CPE inhibition
1,CO[C@H]1CN(C)C(=O)c2ccc(NS(=O)(=O)c3cccc(F)c3)cc2OC[C@H](C)N(C(=O)Cc2cccnc2)C[C@H]1C,active: 22.5%
2,CN(C)/C=C/C(=O)c1ccc(S(=O)c2ccccc2)cc1 (stereo not given),inactive: 1.15%
3,O=S(=O)(N1CCCCC1)n1nnc2cc3ccccc3cc21,inconclusive: 35.5%
4,O=C(Nc1ccc2c(c1)OCO2)N[C@H]1CC[C@H](CCNC(=O)C2CCOCC2)O[C@@H]1CO,inactive: -6.39%
5,Cc1noc(C)c1NC(=O)N(C)C[C@H]1Oc2cc(C#CCN(C)C)ccc2S(=O)(=O)N([C@@H](C)CO)C[C@H]1C,inconclusive: 20.5%
6,N#CCC(=O)Nc1ccc(C(=O)OCC(=O)C23CC4CC(CC(C4)C2)C3)cc1,inactive: -4.55%
7,CC[C@]12c3[nH]c4cc(-c5ccco5)ccc4c3CCN1C(=O)[C@@H](CC(=O)NC(C)(C)C)C[C@@H]2C(=O)N1CCN(C(=O)C2CC2)CC1,active: 43.3%
8,CCN(CC)S(=O)(=O)c1ccc(/C=C/C(=O)OCC(=O)N(C(C)C)C(C)C)cc1,inconclusive: 23.6%
9,O=C(COC(=O)Cc1ccc(Cl)cc1)Nc1ccc2[nH]c(=O)[nH]c2c1,inconclusive: 35.5%
10,Cn1c(SCC(=O)Nc2ccccc2)nnc1C(F)(F)F,inactive: -0.325%
11,CC(C)CC#Cc1cnc2c(c1)C(=O)N([C@@H](C)CO)C[C@H](C)[C@H](CN(C)Cc1ccc(C(=O)O)cc1)O2,active: 78.1%
12,O=C(Nc1ccccc1F)N[C@@H]1CC[C@H](CCNC(=O)C2CCC2)O[C@@H]1CO,inconclusive: 27.4%
13,C[C@@H]1CN([C@H](C)CO)C(=O)c2cc(C#Cc3cccnc3)cnc2O[C@@H]1CN(C)Cc1cccnc1,inactive: -0.0225%
14,Cc1ccc2nc3n(c(=O)c2c1)-c1cc2ccccc2cc1C(=O)NC3Cc1ccc(O)cc1 (stereo not given),inconclusive: 26.1%
15,Cc1noc(C)c1NC(=O)Nc1ccc2c(c1)C(=O)N([C@H](C)CO)C[C@H](C)[C@@H](CN(C)Cc1ccc(Oc3ccccc3)cc1)O2,inactive: -2.96%
16,CCNC(=O)C1(C)CCN(C(=O)c2ccc(F)cc2Cl)C1 (stereo not given),inconclusive: 85.5%
17,COc1ccc(-c2ccc([C@@H]3[C@@H](CO)N4CCCCN(C(=O)c5ccc6c(c5)OCO6)C[C@@H]34)cc2)cc1,inconclusive: 41.7%
18,CO[C@H](CN(C)S(=O)(=O)c1ccc(F)cc1)[C@@H](C)CN(Cc1ccccc1Cl)[C@@H](C)CO,inconclusive: 40.4%
19,C[C@H](CO)N1C[C@H](C)[C@@H](CN(C)Cc2ccc(F)cc2)Oc2ncc(C#CCN(C)C)cc2C1=O,active: 20.7%
20,C[C@H]1CCCCO[C@H](CN(C)C(=O)Cc2ccccc2)[C@@H](C)CN([C@@H](C)CO)C(=O)c2cc(NC(=O)Nc3ccccc3)ccc2O1,inactive: -14.1%
21,CCCCCCCC1c2c(c(C)c(C)oc2=O)Oc2c(C)c(C)oc(=O)c21,active: 89.5%
22,CC(=O)c1c(C)[nH]c(C(=O)OCC(=O)N2CCN(c3ccccc3)CC2)c1C,inconclusive: 23.3%
23,CO[C@H]1CN(C)C(=O)c2cc(NC(=O)Nc3c(C)noc3C)ccc2OC[C@@H](C)NC[C@H]1C,inconclusive: 20.1%

# Structural class: the compounds so far containing a carbonyl joined to an NH by a bond outside any ring.
row,SMILES,CPE inhibition
4,O=C(Nc1ccc2c(c1)OCO2)N[C@H]1CC[C@H](CCNC(=O)C2CCOCC2)O[C@@H]1CO,inactive: -6.39%
5,Cc1noc(C)c1NC(=O)N(C)C[C@H]1Oc2cc(C#CCN(C)C)ccc2S(=O)(=O)N([C@@H](C)CO)C[C@H]1C,inconclusive: 20.5%
6,N#CCC(=O)Nc1ccc(C(=O)OCC(=O)C23CC4CC(CC(C4)C2)C3)cc1,inactive: -4.55%
7,CC[C@]12c3[nH]c4cc(-c5ccco5)ccc4c3CCN1C(=O)[C@@H](CC(=O)NC(C)(C)C)C[C@@H]2C(=O)N1CCN(C(=O)C2CC2)CC1,active: 43.3%
9,O=C(COC(=O)Cc1ccc(Cl)cc1)Nc1ccc2[nH]c(=O)[nH]c2c1,inconclusive: 35.5%
10,Cn1c(SCC(=O)Nc2ccccc2)nnc1C(F)(F)F,inactive: -0.325%
12,O=C(Nc1ccccc1F)N[C@@H]1CC[C@H](CCNC(=O)C2CCC2)O[C@@H]1CO,inconclusive: 27.4%
15,Cc1noc(C)c1NC(=O)Nc1ccc2c(c1)C(=O)N([C@H](C)CO)C[C@H](C)[C@@H](CN(C)Cc1ccc(Oc3ccccc3)cc1)O2,inactive: -2.96%
16,CCNC(=O)C1(C)CCN(C(=O)c2ccc(F)cc2Cl)C1 (stereo not given),inconclusive: 85.5%
20,C[C@H]1CCCCO[C@H](CN(C)C(=O)Cc2ccccc2)[C@@H](C)CN([C@@H](C)CO)C(=O)c2cc(NC(=O)Nc3ccccc3)ccc2O1,inactive: -14.1%
23,CO[C@H]1CN(C)C(=O)c2cc(NC(=O)Nc3c(C)noc3C)ccc2OC[C@@H](C)NC[C@H]1C,inconclusive: 20.1%

# Next part

row,SMILES,CPE inhibition
1,CC(C)(C)c1ccc(C(=O)NCCC(=O)NCc2ccc(F)cc2)cc1,inactive: 1.5%
2,Cc1ccc(-c2ccc3c(c2)O[C@@H](CN(C)C(=O)CN(C)C)[C@@H](C)CN([C@H](C)CO)S3(=O)=O)cc1,inconclusive: 21.7%
3,CCC(=O)N1CC[C@@H]2[C@H]1c1cc(C#Cc3cccc(F)c3)ccc1N(C)[C@H]2CO,active: 127%
4,COc1cccc(Nc2nc(CN)cs2)n1,inconclusive: 38.8%
5,COc1ccc(CNC(=O)C2(C)Cc3c(-c4ccccc4)ccnc3O2)cc1OC (stereo not given),inconclusive: 32.6%
6,CC(C(=O)OCC(=O)N1CCCCC1)N1C(=O)c2ccccc2C1=O (stereo not given),inconclusive: 43.5%
7,CCCNC(=O)N1C[C@@H](O)COC[C@@H]2O[C@H](CC(=O)O)CC[C@H]21,inactive: 15.4%
8,CN1/C(=C/C=C/c2n(C)c3cc([N+](=O)[O-])c([N+](=O)[O-])cc3[n+]2C)C(C)(C)c2ccccc21,inactive: 2.74%
9,COc1cccc(-c2cnc3c(c2)C(=O)N([C@H](C)CO)C[C@@H](C)[C@@H](CN(C)Cc2cccnc2)O3)c1,inactive: -4.84%
10,COc1cc(CN2CC3(CN(C(C)=O)C3)c3c([nH]c4cc(OC)ccc34)[C@H]2CO)cc(OC)c1,inconclusive: 67.9%
11,C[C@H](CO)N1C[C@H](C)[C@H](CN(C)S(=O)(=O)c2ccccc2)Oc2ccc(NC(=O)C3CC3)cc2C1=O,inconclusive: 24%
12,CCOC(=O)C(O)C1CCc2c([nH]c3ccc(C)cc23)C1=O (stereo not given),inconclusive: 42.6%
13,O=C(CCN1CCCCC1)NCC[C@H]1CC[C@H](NC(=O)Nc2ccc(Cl)cc2)[C@@H](CO)O1,inconclusive: 21.7%
14,C[C@@H]1CN([C@@H](C)CO)C(=O)c2cc(NC(=O)Nc3ccc4c(c3)OCO4)ccc2O[C@H]1CN(C)C(=O)NC1CCCCC1,inactive: 5.24%
15,O=C(O)Cc1cccc2c(=O)cc(-c3ccccc3)oc12,inconclusive: 24.5%
16,COc1ccc(CCNC(=O)c2ccc(Cl)nc2)cc1,inconclusive: 29%
17,C[C@@H]1CCCCO[C@H](CN(C)C(=O)Nc2ccc(C(F)(F)F)cc2)[C@@H](C)CN([C@H](C)CO)C(=O)c2cc(NS(=O)(=O)c3ccc(F)cc3)ccc2O1,active: 21.4%
18,C[C@@H]1CN([C@H](C)CO)C(=O)c2cccc(NC(=O)Nc3cccc4ccccc34)c2O[C@H]1CN(C)S(=O)(=O)c1cn(C)cn1,inconclusive: 20.2%
19,N/C(=N\c1nc2ccccc2o1)NC(=O)c1ccc(Cl)cc1,inactive: -2.22%
20,Cc1ccc(-n2ncc3c2CCCC3NC(=O)CCc2c(C)noc2C)cc1C (stereo not given),active: 63.8%
21,Cc1ccc(Cc2c(-c3ccc(C)cc3)nc3c(C)cc(Br)cn23)cc1,inactive: -10.6%
22,COc1ccccc1S(=O)(=O)N[C@H]1CC[C@@H](CCNC(=O)C2CC2)O[C@H]1CO,inconclusive: 21.4%
